The record followed here is the supplement of paper PMC7666118.

By UniProt entry, the sequences of proteins in these tests, tags left out. Where a name states a change or a piece, a line headed by the entry shows the natural chain unless it says otherwise.
UniProt O94768: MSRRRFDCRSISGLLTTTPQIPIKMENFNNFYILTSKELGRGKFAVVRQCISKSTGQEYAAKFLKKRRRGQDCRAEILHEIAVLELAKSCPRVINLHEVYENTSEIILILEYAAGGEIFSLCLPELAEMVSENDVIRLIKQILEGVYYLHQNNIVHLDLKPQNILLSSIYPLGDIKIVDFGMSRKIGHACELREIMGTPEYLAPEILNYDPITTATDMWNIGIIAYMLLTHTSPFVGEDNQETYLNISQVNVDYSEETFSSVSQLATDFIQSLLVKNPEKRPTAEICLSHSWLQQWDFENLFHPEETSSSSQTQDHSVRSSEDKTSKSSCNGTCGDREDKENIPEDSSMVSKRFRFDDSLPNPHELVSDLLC
UniProt Q01082, whole entry: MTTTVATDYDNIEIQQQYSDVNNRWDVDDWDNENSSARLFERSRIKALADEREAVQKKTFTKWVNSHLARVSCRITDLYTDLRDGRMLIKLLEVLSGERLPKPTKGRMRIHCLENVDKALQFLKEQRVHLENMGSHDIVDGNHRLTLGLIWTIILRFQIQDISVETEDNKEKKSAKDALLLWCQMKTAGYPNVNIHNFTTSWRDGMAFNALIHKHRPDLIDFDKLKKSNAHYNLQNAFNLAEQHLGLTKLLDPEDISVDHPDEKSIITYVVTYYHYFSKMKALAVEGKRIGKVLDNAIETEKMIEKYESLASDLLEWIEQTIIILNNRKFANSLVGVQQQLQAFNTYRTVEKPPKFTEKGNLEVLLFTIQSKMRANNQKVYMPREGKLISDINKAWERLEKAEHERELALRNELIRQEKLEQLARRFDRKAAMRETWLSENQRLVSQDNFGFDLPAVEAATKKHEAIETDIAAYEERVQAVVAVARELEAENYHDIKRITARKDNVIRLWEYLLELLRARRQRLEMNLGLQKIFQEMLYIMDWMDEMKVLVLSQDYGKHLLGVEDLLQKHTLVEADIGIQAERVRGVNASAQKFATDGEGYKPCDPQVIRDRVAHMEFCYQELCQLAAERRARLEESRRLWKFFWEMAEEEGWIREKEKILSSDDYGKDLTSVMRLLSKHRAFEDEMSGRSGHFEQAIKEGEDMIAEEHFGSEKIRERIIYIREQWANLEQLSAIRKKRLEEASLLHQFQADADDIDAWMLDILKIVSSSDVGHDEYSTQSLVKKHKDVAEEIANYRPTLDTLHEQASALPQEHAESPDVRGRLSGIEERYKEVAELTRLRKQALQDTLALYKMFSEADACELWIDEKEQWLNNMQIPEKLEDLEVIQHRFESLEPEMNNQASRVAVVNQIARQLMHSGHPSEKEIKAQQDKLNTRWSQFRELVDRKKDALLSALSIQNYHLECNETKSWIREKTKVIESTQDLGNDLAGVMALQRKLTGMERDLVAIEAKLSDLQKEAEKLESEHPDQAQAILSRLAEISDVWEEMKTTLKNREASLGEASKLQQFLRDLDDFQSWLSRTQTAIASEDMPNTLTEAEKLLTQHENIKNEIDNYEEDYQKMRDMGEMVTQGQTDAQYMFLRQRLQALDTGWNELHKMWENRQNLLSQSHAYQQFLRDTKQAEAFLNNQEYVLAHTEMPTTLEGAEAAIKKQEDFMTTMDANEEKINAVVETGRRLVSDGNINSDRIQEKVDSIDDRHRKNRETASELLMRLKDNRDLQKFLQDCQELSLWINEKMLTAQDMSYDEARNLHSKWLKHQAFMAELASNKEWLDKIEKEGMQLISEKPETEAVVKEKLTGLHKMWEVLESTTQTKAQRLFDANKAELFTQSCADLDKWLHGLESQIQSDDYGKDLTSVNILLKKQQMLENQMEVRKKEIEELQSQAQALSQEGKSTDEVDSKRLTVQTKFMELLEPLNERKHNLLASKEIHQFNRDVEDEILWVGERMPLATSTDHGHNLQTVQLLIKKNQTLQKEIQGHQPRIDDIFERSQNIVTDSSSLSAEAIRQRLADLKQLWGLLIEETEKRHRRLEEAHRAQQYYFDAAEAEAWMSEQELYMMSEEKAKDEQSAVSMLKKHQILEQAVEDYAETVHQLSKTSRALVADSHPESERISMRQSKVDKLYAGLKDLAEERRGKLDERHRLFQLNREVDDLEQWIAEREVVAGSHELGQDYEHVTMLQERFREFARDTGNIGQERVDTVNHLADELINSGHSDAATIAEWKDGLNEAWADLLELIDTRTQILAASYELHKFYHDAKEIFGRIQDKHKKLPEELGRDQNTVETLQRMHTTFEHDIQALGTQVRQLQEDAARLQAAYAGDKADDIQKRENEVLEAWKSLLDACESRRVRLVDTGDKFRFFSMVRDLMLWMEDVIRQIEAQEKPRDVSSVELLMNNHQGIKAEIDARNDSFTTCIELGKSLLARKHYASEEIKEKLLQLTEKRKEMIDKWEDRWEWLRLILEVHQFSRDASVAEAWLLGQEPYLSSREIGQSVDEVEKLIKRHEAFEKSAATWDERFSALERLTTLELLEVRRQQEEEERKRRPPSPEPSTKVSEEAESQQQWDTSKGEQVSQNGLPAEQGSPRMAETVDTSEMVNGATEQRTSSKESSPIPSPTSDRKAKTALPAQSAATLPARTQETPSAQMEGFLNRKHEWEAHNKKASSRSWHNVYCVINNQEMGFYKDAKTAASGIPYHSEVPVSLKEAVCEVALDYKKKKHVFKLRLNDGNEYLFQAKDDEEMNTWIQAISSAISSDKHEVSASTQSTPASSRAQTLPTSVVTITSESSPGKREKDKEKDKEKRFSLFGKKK
UniProt Q16594, whole entry: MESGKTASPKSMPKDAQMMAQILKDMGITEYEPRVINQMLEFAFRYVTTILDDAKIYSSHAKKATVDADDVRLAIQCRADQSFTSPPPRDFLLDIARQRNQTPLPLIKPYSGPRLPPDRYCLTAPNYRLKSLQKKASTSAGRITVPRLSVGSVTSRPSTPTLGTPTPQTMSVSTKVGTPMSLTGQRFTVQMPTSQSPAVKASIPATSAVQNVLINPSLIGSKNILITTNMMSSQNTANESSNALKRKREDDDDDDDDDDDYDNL
UniProt Q96RS0: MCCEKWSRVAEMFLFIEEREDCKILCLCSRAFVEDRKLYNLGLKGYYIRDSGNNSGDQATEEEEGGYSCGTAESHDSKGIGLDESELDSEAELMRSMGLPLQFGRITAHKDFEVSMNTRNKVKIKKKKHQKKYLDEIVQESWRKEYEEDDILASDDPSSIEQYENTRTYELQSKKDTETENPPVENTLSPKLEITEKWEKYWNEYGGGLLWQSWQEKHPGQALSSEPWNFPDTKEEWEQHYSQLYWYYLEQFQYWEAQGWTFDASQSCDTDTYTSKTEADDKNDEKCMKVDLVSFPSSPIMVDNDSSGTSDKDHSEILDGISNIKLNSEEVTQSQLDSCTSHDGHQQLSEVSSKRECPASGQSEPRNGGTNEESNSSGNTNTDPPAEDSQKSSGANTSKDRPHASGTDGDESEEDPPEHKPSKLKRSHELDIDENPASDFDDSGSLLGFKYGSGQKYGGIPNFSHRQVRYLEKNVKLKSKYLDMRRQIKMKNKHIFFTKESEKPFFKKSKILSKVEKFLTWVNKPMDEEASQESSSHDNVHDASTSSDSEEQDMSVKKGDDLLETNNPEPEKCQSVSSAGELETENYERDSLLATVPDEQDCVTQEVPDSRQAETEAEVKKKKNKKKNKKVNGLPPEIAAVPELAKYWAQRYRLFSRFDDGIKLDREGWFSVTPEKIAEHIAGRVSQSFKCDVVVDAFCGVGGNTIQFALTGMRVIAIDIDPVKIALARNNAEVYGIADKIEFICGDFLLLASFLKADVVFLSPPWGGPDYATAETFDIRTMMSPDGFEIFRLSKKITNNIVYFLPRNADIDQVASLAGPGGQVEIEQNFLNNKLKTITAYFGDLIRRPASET
UniProt P42226: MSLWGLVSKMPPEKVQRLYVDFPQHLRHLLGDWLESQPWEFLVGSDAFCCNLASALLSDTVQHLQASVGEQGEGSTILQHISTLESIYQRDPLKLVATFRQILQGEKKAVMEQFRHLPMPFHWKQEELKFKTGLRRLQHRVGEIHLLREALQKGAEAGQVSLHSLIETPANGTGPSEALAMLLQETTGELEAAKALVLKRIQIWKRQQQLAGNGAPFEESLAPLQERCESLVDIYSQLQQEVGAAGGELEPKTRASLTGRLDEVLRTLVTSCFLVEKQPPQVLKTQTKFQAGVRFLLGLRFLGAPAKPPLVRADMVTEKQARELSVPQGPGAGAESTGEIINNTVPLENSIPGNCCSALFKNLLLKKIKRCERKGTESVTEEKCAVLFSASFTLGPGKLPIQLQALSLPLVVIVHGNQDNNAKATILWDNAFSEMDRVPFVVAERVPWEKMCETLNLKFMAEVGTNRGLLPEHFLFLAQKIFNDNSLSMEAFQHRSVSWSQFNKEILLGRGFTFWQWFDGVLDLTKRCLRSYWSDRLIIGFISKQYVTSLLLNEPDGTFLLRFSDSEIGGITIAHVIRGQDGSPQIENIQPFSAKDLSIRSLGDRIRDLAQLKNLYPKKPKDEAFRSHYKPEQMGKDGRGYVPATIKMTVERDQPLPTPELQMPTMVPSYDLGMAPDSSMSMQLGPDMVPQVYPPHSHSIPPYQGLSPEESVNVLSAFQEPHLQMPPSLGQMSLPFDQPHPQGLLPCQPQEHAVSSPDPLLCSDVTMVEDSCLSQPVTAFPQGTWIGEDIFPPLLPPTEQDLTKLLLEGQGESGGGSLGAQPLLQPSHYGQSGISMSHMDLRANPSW
UniProt O94804: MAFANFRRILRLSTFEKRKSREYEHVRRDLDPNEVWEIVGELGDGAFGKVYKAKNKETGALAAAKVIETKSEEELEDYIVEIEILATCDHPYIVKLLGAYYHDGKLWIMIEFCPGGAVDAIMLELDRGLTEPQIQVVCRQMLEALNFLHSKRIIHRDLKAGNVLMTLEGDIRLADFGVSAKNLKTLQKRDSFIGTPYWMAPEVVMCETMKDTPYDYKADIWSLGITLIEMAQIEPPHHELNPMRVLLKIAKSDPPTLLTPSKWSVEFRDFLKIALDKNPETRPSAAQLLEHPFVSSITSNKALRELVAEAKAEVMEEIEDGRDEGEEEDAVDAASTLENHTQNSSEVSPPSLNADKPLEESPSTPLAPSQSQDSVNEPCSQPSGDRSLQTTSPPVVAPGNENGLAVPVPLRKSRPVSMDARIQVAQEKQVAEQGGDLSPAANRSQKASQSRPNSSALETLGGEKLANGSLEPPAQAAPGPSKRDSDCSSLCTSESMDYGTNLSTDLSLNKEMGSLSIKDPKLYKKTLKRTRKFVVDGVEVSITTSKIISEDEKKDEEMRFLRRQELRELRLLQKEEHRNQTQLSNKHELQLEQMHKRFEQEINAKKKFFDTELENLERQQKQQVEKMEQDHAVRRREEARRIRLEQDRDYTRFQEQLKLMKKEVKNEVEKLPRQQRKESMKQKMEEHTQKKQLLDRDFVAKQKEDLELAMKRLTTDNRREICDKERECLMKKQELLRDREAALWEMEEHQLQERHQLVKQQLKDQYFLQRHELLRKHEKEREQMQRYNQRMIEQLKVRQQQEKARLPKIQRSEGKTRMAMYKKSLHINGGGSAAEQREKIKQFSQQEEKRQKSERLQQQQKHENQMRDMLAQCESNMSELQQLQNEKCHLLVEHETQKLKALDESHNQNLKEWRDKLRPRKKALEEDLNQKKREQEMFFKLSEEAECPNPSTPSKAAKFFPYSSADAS
UniProt Q8NHG7: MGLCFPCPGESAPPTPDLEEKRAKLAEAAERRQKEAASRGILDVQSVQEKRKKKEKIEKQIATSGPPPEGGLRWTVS
UniProt Q9Y4R8, whole entry: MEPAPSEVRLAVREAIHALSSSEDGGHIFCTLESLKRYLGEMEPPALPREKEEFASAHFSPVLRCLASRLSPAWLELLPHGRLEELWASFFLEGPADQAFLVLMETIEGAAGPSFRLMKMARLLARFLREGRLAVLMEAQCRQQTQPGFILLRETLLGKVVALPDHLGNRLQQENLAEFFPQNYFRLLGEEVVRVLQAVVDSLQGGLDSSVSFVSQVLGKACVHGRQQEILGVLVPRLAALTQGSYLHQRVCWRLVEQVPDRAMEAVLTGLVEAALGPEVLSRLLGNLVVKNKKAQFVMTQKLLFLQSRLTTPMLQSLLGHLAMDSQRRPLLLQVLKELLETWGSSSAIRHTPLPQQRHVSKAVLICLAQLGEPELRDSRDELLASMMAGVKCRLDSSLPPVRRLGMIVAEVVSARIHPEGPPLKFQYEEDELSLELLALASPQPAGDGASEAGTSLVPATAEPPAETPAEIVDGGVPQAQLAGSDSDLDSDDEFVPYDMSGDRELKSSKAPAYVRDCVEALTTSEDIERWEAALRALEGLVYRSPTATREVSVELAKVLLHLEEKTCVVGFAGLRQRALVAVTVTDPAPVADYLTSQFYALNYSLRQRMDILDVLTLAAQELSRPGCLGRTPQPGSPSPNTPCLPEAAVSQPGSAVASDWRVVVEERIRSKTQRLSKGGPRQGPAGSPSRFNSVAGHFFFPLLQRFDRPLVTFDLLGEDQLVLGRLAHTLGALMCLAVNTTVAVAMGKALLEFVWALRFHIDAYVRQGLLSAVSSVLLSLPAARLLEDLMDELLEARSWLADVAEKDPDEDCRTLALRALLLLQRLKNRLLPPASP

The other results are listed elsewhere or left out.

Compound in the assay: COc1ccc(Cn2ccc3cc(C)c(C(=O)NO)cc32)cc1
As to the kind of experiment: dose-dependent thermal stabilisation call (2D-TPP, DLPTP, 10% FDR) (binary (1 = stabilised)); higher = stabilised by the compound. The conditions noted are these: system: HL-60 intact cells; concentration range 0.04-10 µM. The protocol:
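2D thermal proteome profiling in intact HL-60 cells treated with BRD-3811 (0, 0.04, 0.29, 2, 10 uM) for 90 min at 37 C, then heated 3 min at one of 12 temperatures (42-63.9 C). Soluble protein was quantified by TMT10 MS. The value is the DLPTP call of the paper: dose-dependent thermal stabilisation over all temperatures at 10% FDR (F-test of a dose-response against a flat model); one experiment, one call per tested protein.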
As to TBC1D5 (UniProt Q92609), the “dose-dependent thermal stabilisation call” value is inactive: 0. As for SRA1 (UniProt Q9HD15), the figure is inactive: 0; as for TCP11L1 (UniProt Q9NUJ3), inactive: 0; as for STK17B (UniProt O94768), inactive: 0. As for SUCLA2 (UniProt Q9P2R7), the figure is inactive: 0. As for ST7 (UniProt Q9NRC1), the figure is inactive: 0. Turning to TBCEL (UniProt Q5QJ74), the “dose-dependent thermal stabilisation call” value was inactive: 0. Consider SORD (UniProt Q00796), for which the “dose-dependent thermal stabilisation call” value is inactive: 0. As for TARBP2 (UniProt Q15633), the figure is inactive: 0; as for SQRDL (UniProt Q9Y6N5), inactive: 0; as for SPTBN1 (UniProt Q01082), inactive: 0.

Take SPIN1 (UniProt Q9Y657): the “dose-dependent thermal stabilisation call” value was inactive: 0. Then TANK (UniProt Q92844), with inactive: 0; and TAF9 (UniProt Q16594), with inactive: 0; and ST13 (UniProt P50502), with inactive: 0.

TESC (UniProt Q96BS2): the “dose-dependent thermal stabilisation call” value was inactive: 0. As for TGS1 (UniProt Q96RS0), the figure is inactive: 0; as for TAF7 (UniProt Q15545), inactive: 0; as for SRP09, inactive: 0. As for STXBP3 (UniProt O00186), the figure is inactive: 0; as for STAT6 (UniProt P42226), inactive: 0; as for STK10 (UniProt O94804), inactive: 0. Then SSR2 (UniProt P43308), with inactive: 0.

With SRRM2 (UniProt Q9UQ35), the “dose-dependent thermal stabilisation call” value is inactive: 0. As to SURF2 (UniProt Q15527), the “dose-dependent thermal stabilisation call” value was inactive: 0. For the target TFRC (UniProt P02786), the “dose-dependent thermal stabilisation call” value was inactive: 0. For SVIP (UniProt Q8NHG7), the “dose-dependent thermal stabilisation call” value is inactive: 0. TELO2 (UniProt Q9Y4R8): the “dose-dependent thermal stabilisation call” value was inactive: 0.
